Common to all, as to test: normalised response (% of control), CellTox Green; higher = less cell death (100 = DMSO, 0 = benzethonium chloride kill control)
Holding throughout (details): incubation time: 72 h

Assay [1] concerns CAL-148. The method, then: (§1)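 DSRT, 72 h incubation, CellTox Green / CellTiter-Glo readout. Signal is normalised to DMSO and benzethonium chloride controls. Value is the normalised response at dose 2.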
Assay [2] deals with MDA-MB-453. The method, then: as §1
For assay [3], the system named is HCC1599. The procedure:
as §1

Assay [4] relates to MFM-223. The method, then:
as §1

Assay [5] concerns CAL-51. The procedure: as §1
Assay [6] deals with MDA-MB-231. The method, then: as §1
Assay [7] concerns DU-4475. The procedure: as §1
For assay [8], the system named is MDA-MB-436. The procedure:
as §1

Assay [9] concerns HCC1937. The procedure:
as §1

For assay [10], the system named is BT-549. The procedure:
as §1

Assay [11] deals with HCC1143. The method, then: as §1
For assay [12], the system named is CAL-120. The procedure: as §1
Assay [13] concerns CAL-85-1. The method, then:
as §1

Assay [14] concerns Hs578T. The method, then:
as §1

The test system of assay [15] is BT-474. The method, then:
as §1

In assay [16] the test system is MCF-10A. The procedure:
as §1

Assay [17] concerns MDA-MB-468. The method, then:
as §1

Assay [18] concerns HDQ-P1. The procedure: as §1

Normalised response data for four compounds are collected here from the supplement of paper PMC4862054.

Most values lie at the level of the controls, where differences are scatter.

On to `CC(=O)N(O)CCCCCNC(=O)CCC(=O)N(O)CCCCCNC(=O)CCC(=O)N(O)CCCCCN` [Deferoxamine] (10 nM), for which the normalised response worked out at 103% in assay [1]; 94.7% in assay [2]; 93.5% in [3]; 97.6% in [4]; 90.2% in [5]; 95.2% in [6]. Moreover, the normalised response was determined as 92.5% in assay [7]; 91.2% in assay [8]; 81% in [9]; 94.1% in assay [10]; 70.9% in assay [11]; 98.3% in assay [12]. Further, the normalised response in assay [13] was determined as 102%; in assay [14], 114%; in assay [15] it was 102%; in assay [16], 64.6%.

Turning to `Nc1cccc2c1CN(C1CCC(=O)NC1=O)C2=O` (configuration not stated) [Lenalidomide] (10 nM), the normalised response came to 86.5% in [17]; 78.8% in assay [1]; 106% in [2]; 105% in assay [3]; 99% in assay [4]; 88.9% in assay [5]. Further, the normalised response in assay [6] is 99.8%; in assay [7] it was 104%; in assay [8], 74.6%; in [9] it was 83.7%; in [11], 118%; in assay [12], 97.8%. Besides, the normalised response stood at 95.4% in assay [13]; 105% in assay [14]; 97.7% in assay [15]; 102% in [16]; 114% in [18].

With `O=C(O)CC[C@H]1CC[C@@](c2cc(F)ccc2F)(S(=O)(=O)c2ccc(Cl)cc2)CC1` [MK-0752] (1 nM), the normalised response in assay [17] stood at 101%; in assay [1], 111%; in assay [2], 110%; in assay [3] it was 130%; in assay [4], 98.2%; in assay [5] it was 102%. For the same compound, the normalised response in assay [6] was found to be 116%; in assay [7], 118%; in assay [8] it was 95.4%; in [9], 96.3%; in [10], 103%; in assay [11], 105%. For the same compound, the normalised response came to 103% in assay [12]; 102% in assay [13]; 103% in assay [15]; 118% in assay [16]; 114% in [18].

For `CC[C@]1(O)C[C@@H]2CN(CCc3c([nH]c4ccccc34)[C@@](C(=O)OC)(c3cc4c(cc3OC)N(C)[C@H]3[C@@](O)(C(=O)OC)[C@H](OC(C)=O)[C@]5(CC)C=CCN6CC[C@]43[C@@H]65)C2)C1` [Vinblastine] (1 nM), the normalised response in [17] was found to be 54.6%; in [2], 94%; in assay [3], 98.6%; in assay [4], 103%; in assay [5] it was 100%; in [6], 95.2%. Also, the normalised response in assay [7] is 95.3%; in assay [8], 69.8%; in assay [9], 97%; in [10], 106%; in assay [11] it was 105%; in assay [12] it was 96.9%. The normalised response was determined as 107% in assay [13]; 128% in [14]; 98.2% in assay [15]; 104% in [16]; 111% in assay [18].
